# PubChem BioAssay AID540275 (National Center for Advancing Translational Sciences (NCATS), 2011)
# By UniProt entry, the sequences of proteins in these tests, tags left out.
# UniProt Q8NER1, whole entry, looked up: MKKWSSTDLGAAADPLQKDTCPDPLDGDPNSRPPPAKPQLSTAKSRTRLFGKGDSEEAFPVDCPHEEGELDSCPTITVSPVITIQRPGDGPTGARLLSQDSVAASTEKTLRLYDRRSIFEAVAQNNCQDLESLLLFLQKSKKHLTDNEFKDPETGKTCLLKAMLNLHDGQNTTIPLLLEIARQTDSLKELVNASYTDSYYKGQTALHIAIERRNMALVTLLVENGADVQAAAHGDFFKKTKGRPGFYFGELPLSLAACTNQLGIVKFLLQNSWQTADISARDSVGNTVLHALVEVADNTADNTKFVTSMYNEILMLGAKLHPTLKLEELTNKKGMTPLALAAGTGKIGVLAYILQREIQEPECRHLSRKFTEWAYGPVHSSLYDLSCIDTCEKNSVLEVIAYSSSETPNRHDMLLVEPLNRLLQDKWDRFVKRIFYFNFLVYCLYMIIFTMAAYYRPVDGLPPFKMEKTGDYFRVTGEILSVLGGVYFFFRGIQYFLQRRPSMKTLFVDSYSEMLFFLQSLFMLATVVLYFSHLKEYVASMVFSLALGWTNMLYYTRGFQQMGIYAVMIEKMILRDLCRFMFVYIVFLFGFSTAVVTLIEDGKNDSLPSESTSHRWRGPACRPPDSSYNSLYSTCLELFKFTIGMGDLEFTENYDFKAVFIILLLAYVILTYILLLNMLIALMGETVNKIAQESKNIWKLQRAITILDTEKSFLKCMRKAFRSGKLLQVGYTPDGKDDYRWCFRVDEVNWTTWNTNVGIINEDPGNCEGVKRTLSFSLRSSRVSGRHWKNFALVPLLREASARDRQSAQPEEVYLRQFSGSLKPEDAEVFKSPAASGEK
# Hit rate of the full screen: of about 320,000 compounds, about 620 (0.19%) were called active. This list was built around the results that the source calls inconclusive (neither active nor inactive); the mix of calls is not that of the screen. Cut-off read from the data, not from the text of the source: active = activation above about 80%; inconclusive = between about 30% and that limit; inactive = weaker than that.
# Target: Transient receptor potential cation channel subfamily V member 1 (Homo sapiens) (UniProt Q8NER1)
# Assay: HTS Assay for Compounds that Act as Agonists of the Vanilloid Receptor 1; note: 0% is about no effect
# Conditions: TRPV1-expressing cells, Fluo-8 calcium influx, agonist mode; at 8.33 µM, stronger effect = higher value
# Method in brief: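 Fluo-8 calcium influx in TRPV1-expressing cells, kinetic read (ex 480/em 520 nm). Compound added and read 3 min for agonist activity, followed by capsaicin at EC20 final and 2 min further read for enhancement.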
row,Compound,activation
1,O=C(NCCC1=CCCCC1)C1CCN(S(=O)(=O)c2cccc3cccnc23)CC1,inactive: -3.64%
2,O=C(CCN1CCN(Cc2ccccc2)CC1)Nc1cccc(Br)c1,inactive: 9.23%
3,COc1ccc(C2/C=C\CN(CC3CC3)CC(=O)N2Cc2ccc(F)cc2)cc1 (stereo not drawn),inconclusive: 38.3%
4,O=C1CCC/C1=C/Nc1ccc(Cl)cc1,inconclusive: 39.9%
5,CCOc1ccc(N=C(NN)c2ccc3ccccc3n2)cc1,inconclusive: 52%
6,COc1ccc(N=Cc2nc(-c3ccccc3)oc2OC(=O)c2ccccc2)cc1,inconclusive: 51.1%
7,COc1cccc(CNC(=O)CSCc2cnn(-c3ccccc3)c2-n2cccc2)c1,inconclusive: 54.6%
8,COc1ccc(N2CCN(C(=S)Nc3ccccc3)CC2)cc1,inactive: 1.09%
9,COc1cccc(-c2cc(C(=O)Nc3ccc(OC)c(OC)c3)no2)c1,inactive: 8.35%
10,CCn1nc(NC(=O)c2ccncc2)c2cc3ccccc3nc21,inconclusive: 34.4%
11,O=C(Nc1ccc(Cl)cc1)OCc1ccccn1,inconclusive: 55.7%
12,O=C(COC(=O)/C=C/c1ccccc1Cl)NC1CCCC1,inconclusive: 35.3%
13,Cc1ccc(C(=O)Oc2cccc(NC(=O)c3ccco3)c2)cc1S(=O)(=O)N1CCC(C)CC1,inconclusive: 31.6%
14,CCNC(=O)C12CCC(C)(c3nc4cc(C)c(C)cc4nc31)C2(C)C (stereo not drawn),inactive: 4.42%
15,CCN(CC)CCNc1nc(C(F)(F)F)nc2c1nnn2Cc1ccccc1,inconclusive: 31.4%
16,Fc1ccc(CNC(=S)Nc2cccc(Cl)c2)cc1,inconclusive: 47.6%
17,O=C(CN(Cc1ccccc1F)S(=O)(=O)c1ccc(Cl)cc1)NCCC1=CCCCC1,inconclusive: 41%
18,CCCCn1c(N)c(N(Cc2ccccc2OC)C(=O)C(C)C)c(=O)[nH]c1=O,inconclusive: 30.2%
19,O=c1oc2ccccc2cc1-c1ccccc1,inconclusive: 30.9%
20,Cc1ccc(S(=O)(=O)NCc2cccnc2)c(C)c1,inactive: 6.28%
21,Cc1cc(N2CCN(c3cccc(C(F)(F)F)c3)CC2)n2ncnc2n1,inconclusive: 30.4%
22,O=C(Nc1ccccc1)c1ccc2snnc2c1,inconclusive: 45%

# Five neighbouring compounds out of the list so far, for reference:
row,Compound,activation
15,CCN(CC)CCNc1nc(C(F)(F)F)nc2c1nnn2Cc1ccccc1,inconclusive: 31.4%
16,Fc1ccc(CNC(=S)Nc2cccc(Cl)c2)cc1,inconclusive: 47.6%
17,O=C(CN(Cc1ccccc1F)S(=O)(=O)c1ccc(Cl)cc1)NCCC1=CCCCC1,inconclusive: 41%
18,CCCCn1c(N)c(N(Cc2ccccc2OC)C(=O)C(C)C)c(=O)[nH]c1=O,inconclusive: 30.2%
19,O=c1oc2ccccc2cc1-c1ccccc1,inconclusive: 30.9%

# Later entries.

row,Compound,activation
1,O=C(Nc1ccc(F)cc1)OCCOc1ccc(Br)cc1,inconclusive: 56.6%
2,COc1ccc(/C(=N/Nc2ncnc3ccccc23)C(=O)O)cc1,inconclusive: 38%
3,CCCNC(=O)c1onc(CSc2ccc(F)cc2)c1C(=O)NC(C)C,inconclusive: 33.1%
4,CCCCN(CCCC)CP(=O)(c1ccccc1)c1ccccc1,inconclusive: 68.1%
5,O=C(NCC(=O)N(c1ccc(F)cc1)C(C(=O)NC1CCCCC1)c1ccncc1)c1ccco1 (stereo not drawn),inactive: -2.6%
6,Cc1ccc(NC(=O)C2CCN(S(=O)(=O)c3ccccc3)CC2)cc1,inconclusive: 56.7%
7,CCOC(=O)[C@H]1[C@H]2COc3ccc(Cl)cc3[C@@H]2N2C(=O)CN(Cc3ccc(OC)cc3)C(=O)[C@@]12C,inconclusive: 57.1%
8,COc1ccccc1OCc1ccc(C(=O)N/N=C/c2ccco2)cc1,inconclusive: 36%
9,CCCCn1c(N)c(N(CC)C(=O)c2ccc(-c3ccc(Cl)cc3)o2)c(=O)[nH]c1=O,inactive: -1.5%
10,CC(=O)CCc1oc2ccc(C)cc2c1Cc1ccccc1,inconclusive: 36.5%
11,Cn1c(SCc2cccc([N+](=O)[O-])c2)nc2c(c1=O)SCC2,inactive: -2.21%
12,Cc1ccccc1-n1c(-c2csc3ccccc23)n[nH]c1=S,inactive: 4.45%
13,Cn1nc(C(F)(F)F)cc1C(=O)Nc1ccc(Cl)cc1,inconclusive: 63.8%
14,COC(=O)c1cccc(NC(=S)N2CCN(c3ccccc3F)CC2)c1,inconclusive: 55.5%
15,CCOc1ccc2nc(NC(=O)c3cc([N+](=O)[O-])ccc3N3CCOCC3)sc2c1,inconclusive: 38%
16,COc1ccc(Cl)cc1S(=O)(=O)n1ccnc1C(C)C,inactive: 22.4%
17,CCOC(=O)c1sc2nc(CC(=O)OC)nc(NCc3ccc(Cl)cc3)c2c1C,inactive: 3.07%
18,O=C(Nc1cccnc1)C1CCN(S(=O)(=O)c2cccc3nonc23)CC1,inconclusive: 48.4%
19,Oc1sc(C=Nc2ccc(F)cc2)c2ccccc12,inactive: 1.25%
20,Cc1cc(C)n(-c2cc(C(C)(C)C)nc3c(-c4ccccc4)cnn23)n1,inconclusive: 48.1%
21,O=C(NCc1cn(-c2ccccc2)nc1-c1ccccc1)c1cccc([N+](=O)[O-])c1,inconclusive: 59.8%
22,Cc1cccc(N2CCN(C(=O)CCN3C(=O)C4C5C=CC(C5)C4C3=O)CC2C)c1 (stereo not drawn),inconclusive: 31.4%

row,Compound,activation
1,O=[N+]([O-])c1cccc(C2=NC(c3ccccc3)CO2)c1 (stereo not drawn),inactive: 0.801%
2,O=C(Nc1nc2ccccc2c(=O)[nH]1)c1ccccc1SCc1ccccc1,inconclusive: 35.4%
3,COc1ccc(CCNC(=O)c2cc(-c3ccc(C)c(C)c3O)n[nH]2)cc1OC,inconclusive: 40.8%
4,CSC1=NC(C(Cl)(Cl)Cl)N=C(c2ccc(C)cc2)N1 (stereo not drawn),inconclusive: 40.9%
5,Cc1cc(Br)ccc1SCC(=O)OCC(=O)Nc1ccc2[nH]c(=O)[nH]c2c1,inconclusive: 32.7%
6,O=c1c2ccccc2nc(SCc2ccccc2)n1CC1CCCO1 (stereo not drawn),inconclusive: 43.9%
7,Cc1ccnc(Nc2nc(-c3ccc(F)cc3)cs2)c1,inconclusive: 54.7%
8,CSc1ccc(/C=N/NC(=O)CN2CCN(Cc3ccccc3)CC2)cc1,inactive: -6.16%
9,Cc1cc2ccccc2n1CCNC(=O)Cc1ccccc1,inconclusive: 70.8%
10,COc1ccc(CNC(=O)CN2CCN(S(=O)(=O)c3cc(Br)ccc3Br)CC2)cc1OC,inconclusive: 76.4%
11,CC(C)OCCCN1CN(S(=O)(=O)c2ccc(Cl)cc2)c2nc3ccccc3nc21,inconclusive: 33.6%
12,O=C(Nc1ccccc1N1CCCCC1)c1cc(S(=O)(=O)N2CCOCC2)ccc1Cl,inconclusive: 73%
13,CCN(CC)S(=O)(=O)c1ccc2oc(C(=O)NC(C)C)c(C)c2c1,inconclusive: 37.9%
14,CCC(C)[C@H](NC(=O)N1CCN(c2cccc(C(F)(F)F)c2)CC1)C(=O)OC (stereo partly drawn),inconclusive: 31.7%
15,Cc1ccccc1[C@@H](NC(=O)OC(C)(C)C)C(=O)OC(C)(C)C,inconclusive: 39.1%
16,COc1ccc(C(=O)N2CCN(C3CCC(c4ccccc4)CC3)CC2)cc1OC (stereo not drawn),inactive: -1.35%
17,Cc1cc(C(C)(C)C)oc1C(=O)N(CC(=O)NC1CCCC1)Cc1ccccc1Cl,inconclusive: 54.4%
18,CN1CCN(c2ccc(NC(=O)c3ccc4ccccc4c3)cc2)CC1,inconclusive: 38.4%
19,O=c1cc(N2CCCCC2)c(-c2ccccc2)nn1Cc1ccc(Cl)cc1,inconclusive: 53.3%
20,Brc1ccc(-c2nn3c(-c4ccco4)nnc3s2)o1,inactive: 5.37%
21,Cc1ccc(NC(=O)c2ccccc2)cc1C,inconclusive: 50%
22,O=C(NCc1ccccc1)c1onc(CSc2ccc(F)cc2)c1C(=O)NCCCN1CCOCC1,inactive: 5.41%

row,Compound,activation
1,COc1ccc([N+](=O)[O-])cc1NC(=O)Nc1ccc(OC)c(OC)c1,inactive: -4.37%
2,CC(C)c1ccc(NC2CCCN(C(=O)c3cc(C(C)C)[nH]n3)C2)cc1 (stereo not drawn),inactive: -3.14%
3,CCN(CC(=O)Nc1cccc(S(=O)(=O)N(C)c2ccccc2)c1)Cc1ccccc1,inconclusive: 40.7%
4,CC(C)(C)C1CCC(=NOC(=O)c2ccc(F)cc2)CC1 (stereo not drawn),inconclusive: 41.6%
5,Cc1ccc(Nc2nc(-c3ccc(O)c(O)c3)cs2)nc1,inconclusive: 40.4%
6,O=C(CCCN1C(=O)C(c2ccccc2)Oc2cccnc21)NCc1ccc(F)cc1 (stereo not drawn),inconclusive: 60.9%
7,COc1ccc(C2CC(=O)c3cnc(NC(=O)c4ccccc4)nc3C2)c(OC)c1 (stereo not drawn),inconclusive: 36.3%
8,COc1nc(N/N=C/c2ccccc2F)nc(N2CCCCC2)n1,inconclusive: 34.6%
9,CC12CCC(C/C1=N\N=C1\NC(=O)/C(=C\c3cccc(Br)c3)S1)C2(C)C (stereo not drawn),inconclusive: 64.9%
10,O=[N+]([O-])c1ccc(/C=C/C2=NN(c3ccccc3)C(c3ccco3)C2)o1 (stereo not drawn),inactive: 13.6%
11,O=C1CCN(C(=S)NCCc2ccccc2)CC1,inconclusive: 53.7%
12,Cc1ccc(S(=O)(=O)N2CCC(CN3C(=O)c4cccc5cccc(c45)C3=O)CC2)cc1,inactive: -0.822%
13,O=C(COC(=O)Cc1ccccc1[N+](=O)[O-])NCc1ccc(F)cc1,inconclusive: 30.1%
14,COc1cccc(-c2cc(C(=O)Nc3cccnc3)no2)c1,inconclusive: 56.5%
15,CCC1CCCCN1S(=O)(=O)c1ccc(C(=O)Nc2nnc(-c3ccccc3Cl)o2)cc1 (stereo not drawn),inactive: 1.98%
16,COc1ccc(N=C2SC(CC(=O)Nc3ccccc3)C(=O)N2CC2CCCO2)cc1 (stereo not drawn),inconclusive: 45.3%
17,O=C(C1=C[C@@H](c2ccccc2)C[C@@H](OCc2ccc(CO)cc2)O1)N1CCOCC1,inconclusive: 62.6%
18,CCOC(=O)C(=Cc1ccc(Br)cc1)C(=O)OCC,inconclusive: 41.1%
19,CCc1c(C)nc(SCC(=O)N2CCN(c3ccccc3)CC2)[nH]c1=O,inconclusive: 38.1%
20,CC1(C)NC(=O)N(CC(O)CN2C(=O)NC(C)(C)C2=O)C1=O,inactive: -1.4%
21,CCCCOC(=O)C1=C(N)N2C(=O)C(C)SC2=C(C(=O)OCC)C1c1ccc(O)c(OC)c1 (stereo not drawn),inconclusive: 45.2%
22,O=C(C#Cc1ccccc1)Nc1ccc(F)cc1,inconclusive: 70%
